The record followed here is PMC5886308.

By UniProt entry, the sequences of proteins in these tests, tags left out. Where a name states a change or a piece, a line headed by the entry shows the natural chain unless it says otherwise. Residues count along the entry.
UniProt Q8TAB3: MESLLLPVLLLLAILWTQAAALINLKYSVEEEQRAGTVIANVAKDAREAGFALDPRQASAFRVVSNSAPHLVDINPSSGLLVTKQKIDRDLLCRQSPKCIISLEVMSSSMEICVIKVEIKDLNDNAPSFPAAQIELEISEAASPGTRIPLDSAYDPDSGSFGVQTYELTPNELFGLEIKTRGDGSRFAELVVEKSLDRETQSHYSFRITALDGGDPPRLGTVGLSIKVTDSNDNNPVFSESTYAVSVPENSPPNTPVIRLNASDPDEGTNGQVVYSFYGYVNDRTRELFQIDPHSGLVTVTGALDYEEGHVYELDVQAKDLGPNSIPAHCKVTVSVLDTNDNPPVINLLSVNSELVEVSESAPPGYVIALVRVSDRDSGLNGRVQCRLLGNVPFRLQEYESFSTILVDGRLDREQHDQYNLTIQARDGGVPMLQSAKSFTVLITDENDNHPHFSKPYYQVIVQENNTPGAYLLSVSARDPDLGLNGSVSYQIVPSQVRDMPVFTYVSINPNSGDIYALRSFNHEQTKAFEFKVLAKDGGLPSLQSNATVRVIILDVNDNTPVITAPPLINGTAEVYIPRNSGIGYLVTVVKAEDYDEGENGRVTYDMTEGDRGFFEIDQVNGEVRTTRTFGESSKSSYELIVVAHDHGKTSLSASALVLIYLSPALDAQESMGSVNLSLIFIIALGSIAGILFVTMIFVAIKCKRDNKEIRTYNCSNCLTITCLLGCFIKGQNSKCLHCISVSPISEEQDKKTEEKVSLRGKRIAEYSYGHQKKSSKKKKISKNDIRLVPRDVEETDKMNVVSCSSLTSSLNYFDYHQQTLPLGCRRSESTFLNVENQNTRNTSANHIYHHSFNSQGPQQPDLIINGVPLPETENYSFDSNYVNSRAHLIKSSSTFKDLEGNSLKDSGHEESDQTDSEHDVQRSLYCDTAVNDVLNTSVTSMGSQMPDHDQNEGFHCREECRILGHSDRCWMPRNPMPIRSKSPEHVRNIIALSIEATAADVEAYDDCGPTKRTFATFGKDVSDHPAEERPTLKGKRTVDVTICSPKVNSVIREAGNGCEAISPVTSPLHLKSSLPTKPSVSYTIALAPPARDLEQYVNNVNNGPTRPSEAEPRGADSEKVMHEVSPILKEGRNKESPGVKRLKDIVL
UniProt P62813, residues 28-455: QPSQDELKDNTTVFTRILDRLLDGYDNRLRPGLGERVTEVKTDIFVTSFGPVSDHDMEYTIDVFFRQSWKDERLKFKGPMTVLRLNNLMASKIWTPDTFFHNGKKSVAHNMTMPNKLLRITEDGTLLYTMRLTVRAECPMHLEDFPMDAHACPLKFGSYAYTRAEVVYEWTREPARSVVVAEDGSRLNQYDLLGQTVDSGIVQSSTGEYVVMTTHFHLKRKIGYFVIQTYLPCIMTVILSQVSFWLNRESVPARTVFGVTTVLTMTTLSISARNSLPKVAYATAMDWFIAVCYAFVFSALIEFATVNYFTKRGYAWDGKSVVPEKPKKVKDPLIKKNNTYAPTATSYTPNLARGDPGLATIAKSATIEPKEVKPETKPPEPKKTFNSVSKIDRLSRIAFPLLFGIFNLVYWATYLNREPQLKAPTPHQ
UniProt P63079, residues 26-473: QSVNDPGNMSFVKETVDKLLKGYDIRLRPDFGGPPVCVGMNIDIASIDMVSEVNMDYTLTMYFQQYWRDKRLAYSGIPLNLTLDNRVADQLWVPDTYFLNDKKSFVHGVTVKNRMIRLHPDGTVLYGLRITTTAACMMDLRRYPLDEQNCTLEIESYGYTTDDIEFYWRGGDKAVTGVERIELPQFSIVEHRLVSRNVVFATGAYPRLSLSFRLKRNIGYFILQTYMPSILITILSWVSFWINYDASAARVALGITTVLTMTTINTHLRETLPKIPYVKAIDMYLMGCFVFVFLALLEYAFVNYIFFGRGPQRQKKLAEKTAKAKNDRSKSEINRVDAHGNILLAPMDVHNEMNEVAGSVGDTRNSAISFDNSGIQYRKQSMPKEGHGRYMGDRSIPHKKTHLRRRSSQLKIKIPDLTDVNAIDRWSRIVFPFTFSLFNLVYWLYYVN
UniProt P20236, residues 29-493: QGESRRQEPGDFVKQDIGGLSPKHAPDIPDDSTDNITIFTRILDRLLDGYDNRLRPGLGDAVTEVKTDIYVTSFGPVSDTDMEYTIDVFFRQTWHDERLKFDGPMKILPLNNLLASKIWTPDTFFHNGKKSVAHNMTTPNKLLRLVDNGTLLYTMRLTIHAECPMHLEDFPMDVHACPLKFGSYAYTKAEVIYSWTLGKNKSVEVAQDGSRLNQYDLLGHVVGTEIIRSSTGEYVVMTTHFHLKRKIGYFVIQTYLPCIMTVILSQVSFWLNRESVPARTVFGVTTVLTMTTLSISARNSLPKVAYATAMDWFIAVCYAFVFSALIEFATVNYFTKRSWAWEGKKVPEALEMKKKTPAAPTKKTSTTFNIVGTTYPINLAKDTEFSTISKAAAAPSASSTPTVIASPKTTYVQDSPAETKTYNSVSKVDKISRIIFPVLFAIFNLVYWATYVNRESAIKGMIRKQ
UniProt P18508, residues 39-466: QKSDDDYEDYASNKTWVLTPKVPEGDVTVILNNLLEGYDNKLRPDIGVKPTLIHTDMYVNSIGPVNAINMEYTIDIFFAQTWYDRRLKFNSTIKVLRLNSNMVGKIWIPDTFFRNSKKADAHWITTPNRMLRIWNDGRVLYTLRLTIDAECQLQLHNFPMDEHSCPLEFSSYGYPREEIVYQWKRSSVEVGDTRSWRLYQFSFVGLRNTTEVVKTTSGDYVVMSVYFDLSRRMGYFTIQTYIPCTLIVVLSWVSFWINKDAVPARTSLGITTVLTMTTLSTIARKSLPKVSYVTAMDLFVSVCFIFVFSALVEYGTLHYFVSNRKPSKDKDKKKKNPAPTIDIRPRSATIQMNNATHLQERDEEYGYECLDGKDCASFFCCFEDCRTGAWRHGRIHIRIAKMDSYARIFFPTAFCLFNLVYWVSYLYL

For assay [1], the target named is PCDH19 GST-CT (entire intracellular C-terminal tail) (UniProt Q8TAB3). Briefly: pull-down; GST fusion proteins immobilized on glutathione-Sepharose 4B beads, incubated overnight at 4°C with rat brain (cortex plus hippocampus) homogenate (modified RIPA buffer); western blot; only the target purified.
Assay [2] has the same target. Briefly: pull-down; GST fusion proteins immobilized on glutathione-Sepharose 4B beads, incubated overnight at 4°C with lysates of transfected HEK293T cells (modified RIPA buffer); western blot; only the target purified. On the technique in general: A western blot detects proteins with antibodies after separation by electrophoresis.
For assay [3], the target named is PCDH19 GST-CT1 (proximal region of the C-terminal tail) (UniProt Q8TAB3). The description is as above.
For assay [4] the target is unchanged. The assay can be described thus: pull-down; GST fusion proteins immobilized on glutathione-Sepharose 4B beads, incubated overnight at 4°C with rat brain (cortex plus hippocampus) homogenate (modified RIPA buffer); western blot; only the target purified.
Assay [5] has as its target T1, GABAAR alpha 1 GST-TM-A1 (amino acids 334-343) (UniProt P62813).
T1 sequence: NYFTKRGYAW
The description is as above.

No constants are given. Whether binding was seen depends on the method and setting. In cells and extracts the contact can be indirect. Binding calls can cover weak binding; strength is not graded here. For some assays here: Sequences can lack the tags named with a protein.

As to “endogenous GABAAR beta 3 subunit (rat) (from UniProt P63079 26-473) (receptor)”, the binding result in assay [1] is given as “binds”.

Turning to “GABAAR myc-alpha 1 subunit (from UniProt P62813 28-455) (receptor)”, the binding entry in assay [2] and in assay [3] was “binds” each time.

As for “endogenous GABAAR alpha 1 subunit (rat) (from UniProt P62813 28-455) (receptor)”, the binding result in assay [1] and in assay [4] was “binds” each time.

As to “endogenous GABAAR alpha 3 subunit (rat) (from UniProt P20236 29-493) (receptor)”, the binding entry in assay [1] is “binds”.

Consider endogenous PCDH19 (rat), for which the binding result in assay [5] was “binds”.

On to “endogenous GABAAR gamma 2 subunit (rat) (from UniProt P18508 39-466) (receptor)”, for which the binding entry in assay [1] is “binds”.
